For one assay, the system named is MDA-MB-231 cells. Kind of assay: MTT cell proliferation assay, MDA-MB-231. The assay is classed as cell-based. The conditions noted are these: Homo sapiens, MDA-MB-231, 48 h, read-out: IC50 (Mean ± SEM) MDA-MB-231. (Tetrazolium dyes change colour on reduction, which living cells bring about.)
In the next assay the test system is MCF-7 cells. As to the kind of experiment: MTT cell proliferation assay, MCF-7. The assay is classed as cell-based. Particulars: Homo sapiens, MCF7, 48 h, read-out: IC50 (Mean ± SEM) MCF-7.

Molecules are shown by their SMILES.

`CC/C(=C(\c1ccccc1)c1ccc(OCCN(C)C)cc1)c1ccccc1` [TAM, Tamoxifen, reference compound]: the IC50 in the assay with MDA-MB-231 cells is 16.2 ± 0.47 µM; with MCF-7 cells it was 12.8 ± 0.38 µM.

In general, IC50 refers to the midpoint of a concentration-inhibition curve.
